Test results published in article PMC1802081.
No constants are given. Whether binding was seen depends on the method and setting.

The chains behind the UniProt entries cited, without tags or fusion partners. Residues count along the entry.
UniProt P36894, residues 24-152: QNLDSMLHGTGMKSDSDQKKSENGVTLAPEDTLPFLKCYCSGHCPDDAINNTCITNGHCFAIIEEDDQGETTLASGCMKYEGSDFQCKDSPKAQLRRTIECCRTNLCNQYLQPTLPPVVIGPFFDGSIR

Target: BMPR-IAECD (BMP type IA receptor ectodomain) (UniProt P36894)
Test: crystal structure; ternary complex (1:2:2) of BMP-2 L100K/N102D, BMPR-IAECD and ActR-IIBECD; crystals from 30% PEG3350, 0.1 M Tris-HCl pH 8.8, 0.2 M ammonium acetate, 21°C; both purified

binding: no binding
B1: ActR-IIBECD wildtype (activin type IIB receptor ectodomain) (receptor, UniProt P27040 19-137)
chain: SGRGEAETRECIYYNANWELERTNQSGLERCEGEQDKRLHCYASWRNSSGTIELVKKGCWLDDFNCYDRQECVATEENPQVYFCCCEGNFCNERFTHLPEPGGPEVTYEPPPTAPTLLT
